For the experiment, the target named is Cellular zinc finger anti-NF-kappa-B protein (Cezanne) (human (endogenous in PC9 and Hek 293T)) (UniProt Q6GQQ9). Kind of experiment: co-IP; PC9 (Fig. 3B) and Hek 293T (Fig. 3C) cell lysates; protein G Plus-Agarose with primary antibody at 4 °C overnight, western blot; precipitating antibody not stated.

By UniProt entry, the sequences of proteins in these tests, tags left out.
UniProt Q6GQQ9: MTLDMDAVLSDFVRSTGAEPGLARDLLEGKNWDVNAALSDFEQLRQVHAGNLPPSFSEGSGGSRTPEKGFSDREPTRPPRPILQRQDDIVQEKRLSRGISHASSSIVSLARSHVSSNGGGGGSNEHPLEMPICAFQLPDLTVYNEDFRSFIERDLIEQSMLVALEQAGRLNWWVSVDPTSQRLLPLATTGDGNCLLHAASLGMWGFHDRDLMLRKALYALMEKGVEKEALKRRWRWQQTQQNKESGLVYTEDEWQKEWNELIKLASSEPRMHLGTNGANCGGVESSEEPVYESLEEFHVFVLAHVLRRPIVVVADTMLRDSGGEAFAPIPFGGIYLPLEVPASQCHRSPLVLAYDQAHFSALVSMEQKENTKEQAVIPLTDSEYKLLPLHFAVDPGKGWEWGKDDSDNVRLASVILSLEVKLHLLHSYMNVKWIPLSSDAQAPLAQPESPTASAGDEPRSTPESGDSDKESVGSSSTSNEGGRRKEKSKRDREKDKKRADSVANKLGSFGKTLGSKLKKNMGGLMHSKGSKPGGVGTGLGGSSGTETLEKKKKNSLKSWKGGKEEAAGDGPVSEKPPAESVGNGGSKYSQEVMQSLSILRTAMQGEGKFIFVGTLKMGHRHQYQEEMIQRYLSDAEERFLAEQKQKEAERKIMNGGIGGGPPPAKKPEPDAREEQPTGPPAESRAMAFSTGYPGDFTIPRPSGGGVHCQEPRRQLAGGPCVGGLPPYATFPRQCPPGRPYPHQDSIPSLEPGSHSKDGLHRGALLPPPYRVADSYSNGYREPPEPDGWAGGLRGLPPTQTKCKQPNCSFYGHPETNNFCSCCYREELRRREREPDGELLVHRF
UniProt Q14457: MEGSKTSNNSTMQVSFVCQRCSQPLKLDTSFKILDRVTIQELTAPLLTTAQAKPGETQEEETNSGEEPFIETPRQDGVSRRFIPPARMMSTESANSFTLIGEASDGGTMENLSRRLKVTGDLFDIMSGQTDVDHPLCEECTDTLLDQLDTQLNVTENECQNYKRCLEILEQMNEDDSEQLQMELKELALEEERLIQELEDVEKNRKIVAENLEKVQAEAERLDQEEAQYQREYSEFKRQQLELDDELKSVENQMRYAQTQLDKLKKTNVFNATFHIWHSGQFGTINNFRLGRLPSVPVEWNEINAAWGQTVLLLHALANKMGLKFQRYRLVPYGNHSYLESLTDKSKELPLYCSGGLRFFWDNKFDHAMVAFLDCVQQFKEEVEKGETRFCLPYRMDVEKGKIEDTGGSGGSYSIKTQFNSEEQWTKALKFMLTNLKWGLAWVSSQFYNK

These are yes or no findings as the source states them, for the method shown. Binding seen in cells or lysates may run through a third protein.

In the case of Beclin-1 (from UniProt Q14457 1-450), the binding result is given as “no binding”.

(Values after article PMC10439204.)
